Data as given in PMC13626733, “Molecular basis of high-torque transmission of the Vibrio polar flagellar motor” (Protein & Cell, 2026).

Columns and labels:
Test in all cases: cryo-EM structure; polar flagellar motor-hook complex purified as a whole from V. alginolyticus KK148 ΔflgL; local refinements of the LPHT ring, hook, rod, export apparatus and MS ring; LPHT ring particles also obtained by disassembling the complex at reduced salt; both purified
[1] = target: T1, FlgC (Vibrio alginolyticus (endogenous in strain KK148 ΔflgL))
T1 sequence: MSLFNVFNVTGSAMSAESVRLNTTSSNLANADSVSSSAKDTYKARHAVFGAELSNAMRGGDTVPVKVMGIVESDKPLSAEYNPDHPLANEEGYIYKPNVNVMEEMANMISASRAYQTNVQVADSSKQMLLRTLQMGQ

[2] = target: T2, FliF (Vibrio alginolyticus (endogenous in strain KK148 ΔflgL)) (UniProt Q75N27)
T2 sequence: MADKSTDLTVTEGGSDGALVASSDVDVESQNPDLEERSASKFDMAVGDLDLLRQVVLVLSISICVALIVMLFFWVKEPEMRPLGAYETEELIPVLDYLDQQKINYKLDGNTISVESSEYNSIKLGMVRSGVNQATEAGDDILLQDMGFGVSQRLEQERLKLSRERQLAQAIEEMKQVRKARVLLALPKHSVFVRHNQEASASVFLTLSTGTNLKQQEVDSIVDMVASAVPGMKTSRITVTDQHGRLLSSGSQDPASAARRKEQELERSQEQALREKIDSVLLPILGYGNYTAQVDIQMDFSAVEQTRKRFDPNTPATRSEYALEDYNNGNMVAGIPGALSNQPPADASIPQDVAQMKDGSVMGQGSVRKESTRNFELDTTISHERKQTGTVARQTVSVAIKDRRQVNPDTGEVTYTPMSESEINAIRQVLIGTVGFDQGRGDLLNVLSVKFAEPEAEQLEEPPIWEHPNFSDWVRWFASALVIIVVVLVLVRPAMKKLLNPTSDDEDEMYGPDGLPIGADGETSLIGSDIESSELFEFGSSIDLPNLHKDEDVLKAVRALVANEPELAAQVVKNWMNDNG

[3] = target: FlgF (Vibrio alginolyticus (endogenous in strain KK148 ΔflgL))

## FlgG
[1]
  binding: binds
[2]
  binding: binds

## FlrP
[1]
  binding: binds
[2]
  binding: binds

## FliE
[2]
  binding: binds

## FlgB
[2]
  binding: binds

B1: FliF (natural protein, UniProt Q75N27 1-580, looked up)
chain: MADKSTDLTVTEGGSDGALVASSDVDVESQNPDLEERSASKFDMAVGDLDLLRQVVLVLSISICVALIVMLFFWVKEPEMRPLGAYETEELIPVLDYLDQQKINYKLDGNTISVESSEYNSIKLGMVRSGVNQATEAGDDILLQDMGFGVSQRLEQERLKLSRERQLAQAIEEMKQVRKARVLLALPKHSVFVRHNQEASASVFLTLSTGTNLKQQEVDSIVDMVASAVPGMKTSRITVTDQHGRLLSSGSQDPASAARRKEQELERSQEQALREKIDSVLLPILGYGNYTAQVDIQMDFSAVEQTRKRFDPNTPATRSEYALEDYNNGNMVAGIPGALSNQPPADASIPQDVAQMKDGSVMGQGSVRKESTRNFELDTTISHERKQTGTVARQTVSVAIKDRRQVNPDTGEVTYTPMSESEINAIRQVLIGTVGFDQGRGDLLNVLSVKFAEPEAEQLEEPPIWEHPNFSDWVRWFASALVIIVVVLVLVRPAMKKLLNPTSDDEDEMYGPDGLPIGADGETSLIGSDIESSELFEFGSSIDLPNLHKDEDVLKAVRALVANEPELAAQVVKNWMNDNG
notes: FliF, MS ring subunit of the polar flagellar motor, Vibrio alginolyticus; domains RBM2, RBM3, β-collar; extended peptide loops LA, LB, LC; 34 subunits form the MS ring; 23 RBM2 domains seen in the RBM2 subring; also called MS ring protein; FliF peptide loops LA, LB, LC; source: endogenous, purified within the polar flagellar motor-hook complex from V. alginolyticus KK148 ΔflgL
[3]
  binding: binds

No constants are given. Whether binding was seen depends on the method and setting. Binding calls can cover weak binding; strength is not graded here.
